PubChem BioAssay AID720505, Drosophila RNAi Screening Center | 2013

- Purpose: 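Knock-downs that reduce calcium influx once internal stores are emptied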 (primary screen)
- Cells: Drosophila S2R+ cells
- Reagent: long dsRNA against Drosophila genes
- Challenge: thapsigargin (2 µM) in calcium-free buffer to empty internal stores, then 2 mM calcium added back
- Read-out: 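Fluo-4 signal in 384-well plates read on a FLIPR after thapsigargin (2 µM, calcium-free) store depletion and 2 mM calcium add-back; unnormalised mean endpoint per well; screen run twice, selected wells retested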
- Scale: calcium signal and retest calcium signal: higher = more calcium entry after store depletion
- Active means: 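Knock-downs counted as hits when calcium entry dropped relative to STIM1 positive and Rho1 negative controls present on each plate; roughly 1500 genes called, with reductions of differing size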
- Meaning of the calls: active = called as lowering calcium entry; inactive = not called
The screen tested about 20,000 reagents; below is a random part of those with a known target gene and a result. Over the whole deposit, about 2,100 (10%) are marked active. 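Raw plate signals without normalisation; calls rest on control-based scores that were not deposited; replicate 2 separates called from uncalled poorly.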 Not given: the amount of reagent, the time to read-out.

CG42850 (retired record) (GeneID 10178850) [DRSC00872] → calcium signal, replicate 1: 136; calcium signal, replicate 2: 155; call: inactive
Ranbp21 (GeneID 32970) [DRSC19447] → calcium signal, replicate 1: 104; calcium signal, replicate 2: 94.9; call: inactive
CG7394 (GeneID 39294) [DRSC10835] → calcium signal, replicate 1: 98.7; calcium signal, replicate 2: 85.6; call: inactive
azot (GeneID 35751) [DRSC06051] → calcium signal, replicate 1: 71; calcium signal, replicate 2: 111; call: inactive
CG30178 (GeneID 246501) [DRSC21911] → calcium signal, replicate 1: 79; calcium signal, replicate 2: 183; call: inactive
CG5509 (GeneID 41539) [DRSC15822] → calcium signal, replicate 1: 171; calcium signal, replicate 2: 91.5; call: inactive
form3 (GeneID 3346238) [DRSC10195] → calcium signal, replicate 1: 99.5; calcium signal, replicate 2: 81.8; call: inactive
form3 (GeneID 3346238) [DRSC10297] → calcium signal, replicate 1: 139; calcium signal, replicate 2: 77.2; call: inactive
form3 (GeneID 3346238) [DRSC11024] → calcium signal, replicate 1: 109; calcium signal, replicate 2: 84.9; call: inactive
cN-IIIB (GeneID 37875) [DRSC04359] → calcium signal, replicate 1: 72.5; calcium signal, replicate 2: 170; call: active
Ir68b (GeneID 39378) [DRSC10251] → calcium signal, replicate 1: 95.3; calcium signal, replicate 2: 99.2; call: inactive
SkpA (GeneID 31016) [DRSC18833] → calcium signal, replicate 1: 101; calcium signal, replicate 2: 182; call: inactive
Ptpmeg2 (GeneID 31907) [DRSC18277] → calcium signal, replicate 1: 64.6; calcium signal, replicate 2: 92; call: active
Ptpmeg2 (GeneID 31907) [DRSC18278] → calcium signal, replicate 1: 74.2; calcium signal, replicate 2: 89.8; call: active
Ptpmeg2 (GeneID 31907) [DRSC23303] → calcium signal, replicate 1: 88.2; calcium signal, replicate 2: 133; call: inactive
CG11456 (GeneID 40309) [DRSC11665] → calcium signal, replicate 1: 166; calcium signal, replicate 2: 121; call: inactive
CG2861 (GeneID 31414) [DRSC18229] → calcium signal, replicate 1: 218; calcium signal, replicate 2: 104; call: inactive
CG10864 (GeneID 42222) [DRSC14273] → calcium signal, replicate 1: 200; calcium signal, replicate 2: 191; call: inactive
SdhB (GeneID 35590) [DRSC05018] → calcium signal, replicate 1: 177; calcium signal, replicate 2: 122; retest calcium signal, replicate 1: 135; retest calcium signal, replicate 2: 100; call: inactive
SdhB (GeneID 35590) [DRSC21367] → calcium signal, replicate 1: 129; calcium signal, replicate 2: 120; call: inactive
CG14036 (GeneID 33735) [DRSC02361] → calcium signal, replicate 1: 179; calcium signal, replicate 2: 81.7; call: inactive
CG14107 (GeneID 39498) [DRSC10110] → calcium signal, replicate 1: 98.8; calcium signal, replicate 2: 85.7; call: inactive
Acp98AB (GeneID 12798279) [DRSC21837] → calcium signal, replicate 1: 60.6; calcium signal, replicate 2: 99.9; call: active
CG7101 (GeneID 32875) [DRSC20023] → calcium signal, replicate 1: 169; calcium signal, replicate 2: 140; call: inactive
CG7101 (GeneID 32875) [DRSC22845] → calcium signal, replicate 1: 89.9; calcium signal, replicate 2: 119; call: inactive
CtsK2 (GeneID 36973) [DRSC06897] → calcium signal, replicate 1: 142; calcium signal, replicate 2: 137; call: inactive
CG17167 (GeneID 3354991) [DRSC20902] → calcium signal, replicate 1: 71.3; calcium signal, replicate 2: 148; call: active
CG17167 (GeneID 3354991) [DRSC20903] → calcium signal, replicate 1: 127; calcium signal, replicate 2: 79.2; call: inactive

Reagents listed above with an active call (5):
cN-IIIB (GeneID 37875) [DRSC04359] → calcium signal, replicate 1: 72.5; calcium signal, replicate 2: 170; call: active
Ptpmeg2 (GeneID 31907) [DRSC18277] → calcium signal, replicate 1: 64.6; calcium signal, replicate 2: 92; call: active
Ptpmeg2 (GeneID 31907) [DRSC18278] → calcium signal, replicate 1: 74.2; calcium signal, replicate 2: 89.8; call: active
Acp98AB (GeneID 12798279) [DRSC21837] → calcium signal, replicate 1: 60.6; calcium signal, replicate 2: 99.9; call: active
CG17167 (GeneID 3354991) [DRSC20902] → calcium signal, replicate 1: 71.3; calcium signal, replicate 2: 148; call: active
